Among the data in PubChem BioAssay AID1487 (National Center for Advancing Translational Sciences (NCATS), 2009) are AC50 values, retold here.

For orientation: AC50 means the concentration giving half of the maximal activity seen.

The nature of this assay: qHTS Assay for Modulators of Lamin A Splicing. The note with it: HeLa LMNA splicing GFP/RFP minigene ratio, 48 h. In a few lines: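 S3 HeLa stable clones carrying a lamin A-EGFP splicing minigene plus DsRed2 were seeded at 600 cells/well in Opti-MEM with 2% FBS, pin-dosed and incubated 48 h at 37°C. Acumen cytometry (488 nm) gave the GFP/RFP total-intensity ratio.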
(In general: qHTS replaces the single test concentration by a dilution series.)

Setting [1] is: measured here: RFP viability control channel.
Setting [2] is: measured here: GFP splicing reporter channel.

SMILES strings stand for the structures. Some of the results follow. These are further read-outs of the screen, such as a control signal, another cell line or another target. No call is given for them. Most of these compounds were active or inconclusive in the main read-out, so they are no random draw. The note in brackets gives the kind of curve behind each potency; many fits are weak.

On to `O=C(CSc1nnc2ccccn12)NCc1ccco1`, for which the half-maximal activity concentration (AC50) under setting [1] was 0.0891 µM [falling, full curve, poor fit]. In the case of `CC(C)N1CCC(N2CCN(CCCc3ccccc3)CC2CCO)CC1` (centres undefined), the half-maximal activity concentration (AC50) reads like this: under setting [2], 1 µM [falling, partial curve]; under setting [1], 1.12 µM [falling, partial curve]. Consider `O=C(c1ccco1)N1CCN(S(=O)(=O)/C=C/c2ccccc2)CC1`, for which the AC50 under setting [1] is 2.51 µM [falling, partial curve]. For the compound `CCCOC(=O)c1ccc(Nc2cc(C)nc3ncnn23)cc1`, the AC50 is 12.6 µM [rising, single point] under setting [2] and 31.6 µM [rising, single point] under setting [1]. Regarding `COc1ccc(CNC(=O)CN2CCC(C(=O)c3ccc(OC)cc3)CC2)cc1`, the AC50 is, setting by setting: under setting [2], 15.8 µM [rising, partial curve, poor fit]; under setting [1], 14.1 µM [rising, partial curve]. `Clc1ccc(-c2csc(N3CCSCC3)n2)cc1`: the AC50 under setting [2] was 35.5 µM [rising, single point]. For the compound `COc1cc(CNc2ccc(C)c(C)c2)cc(OC)c1OC`, under setting [1], the half-maximal activity concentration (AC50) is 35.5 µM [falling, single point]. On to `CCN(CC)C(=O)CSc1nnc(-c2ccc(F)cc2)n1N`, for which the half-maximal activity concentration (AC50) under setting [2] was 5.62 µM [rising, single point].

For `Cc1cc2cc(CNC(=O)CCC(=O)O)ccc2n1C`, the AC50 under setting [2] is 0.00282 µM [falling, full curve, poor fit].

As to `Cc1ccc(C2CC(c3cccs3)=NN2C(=O)c2ccco2)o1` (centres undefined), the AC50 reads like this: under setting [2], 0.00447 µM [falling, full curve, poor fit]; under setting [1], 0.00501 µM [falling, full curve]. Regarding `COc1ccc2c(c1)C(=O)/C(=C/C=C/c1ccccc1)CC2`, the concentration at half-maximal activity (AC50) under setting [1] was 8.91 µM [rising, partial curve, poor fit]. `COc1cccc(-c2csc(N3CCN(C(=O)Nc4ccc(F)cc4)CC3)n2)c1`: the AC50 under setting [1] is 35.5 µM [rising, single point].

With `N#CCSc1nc2c(c(=O)n1Cc1ccco1)C1(CCCC1)Cc1ccccc1-2`, the half-maximal activity concentration (AC50) is 31.6 µM [rising, single point] under setting [2] and 35.5 µM [rising, single point] under setting [1]. As for `CCN(CC)c1ccc(C=C2C(=O)OC3(CCCCC3)OC2=O)cc1`, the half-maximal activity concentration (AC50) runs as follows: under setting [2], 0.891 µM [falling, full curve, poor fit]; under setting [1], 0.562 µM [falling, full curve, poor fit]. For `CCC(C)NC(=O)c1cc(Sc2nnc(C)s2)nc2ccccc12` (centres undefined), the AC50 under setting [1] was 5.62 µM [rising, full curve]. The same measure, in the same setting: in the case of `COc1ccc(C(=O)c2ccc(N3CCN(C(=O)c4ccc(F)cc4)CC3)c(F)c2)cc1Br` it was 5.62 µM [rising, single point]. For `CCSc1nnc(NC(=O)c2cccc(OCc3c(C)noc3C)c2)s1`, the half-maximal activity concentration (AC50) by setting is: under setting [2], 35.5 µM [rising, single point]; under setting [1], 31.6 µM [rising, single point].

As for `Cc1ccnc(NC(=O)/C=C/c2ccccc2[N+](=O)[O-])c1`, the concentration at half-maximal activity (AC50) under setting [1] was 1.26 µM [rising, full curve].

As for `COc1ccc(CCNC(=S)Nc2cc(C)cc(C)c2)cc1`, the concentration at half-maximal activity (AC50) was 14.1 µM [rising, partial curve] under setting [2] and 17.8 µM [rising, single point] under setting [1].

For `CC1CC(=O)N(c2ccc(NCc3ccc(Cl)cc3)c([N+](=O)[O-])c2)C1=O` (centres undefined), the AC50 under setting [2] is 11.2 µM [rising, single point].

Regarding `COc1cc(OC)c(C2=NOC(C(=O)Nc3ccc4c(c3)OCO4)C2)cc1Cl` (centres undefined), under setting [1], the half-maximal activity concentration (AC50) was 15.8 µM [rising, partial curve, poor fit]. On to `COCCNc1ncnc2ccc(-c3cccc(NS(C)(=O)=O)c3)cc12`, for which the AC50 was 11.2 µM [falling, partial curve] under setting [2] and 10 µM [falling, partial curve, poor fit] under setting [1].

As for `Cc1ccc(S(=O)(=O)N(Cc2ccc(F)cc2)Cc2ccco2)cc1`, the AC50 under setting [2] was 12.6 µM [rising, partial curve] and the AC50 under setting [1] is 31.6 µM [rising, single point].

Regarding `COc1ccc(C2CC(c3ccccc3)=NN2C(=O)COC(=O)c2nc3nc(C)cc(C)n3n2)cc1` (centres undefined), the AC50 by setting is: under setting [2], 0.0631 µM [falling, full curve, poor fit]; under setting [1], 0.355 µM [falling, full curve, poor fit]. Turning to `c1ccc(Nc2ncnc3c2oc2ccccc23)cc1`, the AC50 under setting [1] was 7.94 µM [rising, partial curve, poor fit]. Still for that read-out and setting: in the case of `Fc1ccc2nc(Nc3nc4c(F)cccc4s3)sc2c1` it was 28.2 µM [rising, single point]. In the case of `COc1ccc(Sc2ccc(NC(=O)c3ccccc3Cl)cc2C#N)cc1`, the concentration at half-maximal activity (AC50) was 35.5 µM [falling, single point] under setting [2] and 25.1 µM [falling, single point] under setting [1]. Regarding `COc1ccc(/C=C2\SC(=O)N(CC(=O)NNC(=O)c3ccccc3O)C2=O)cc1`, the AC50 under setting [2] was 12.6 µM [rising, partial curve, poor fit]. Take `Cc1cc(C)c(C#N)c(SCc2cc3c(cc2Cl)OCO3)n1`: the AC50 is 22.4 µM [falling, single point] under setting [2] and 28.2 µM [falling, single point] under setting [1]. Regarding `Cc1nc(SCC(=O)NCc2ccco2)[nH]c(=O)c1C`, the AC50 is 14.1 µM [falling, partial curve] under setting [2] and 14.1 µM [falling, partial curve] under setting [1]. As to `O=C(Nc1cccc(Cl)c1)c1ccc2c(c1)SC1=NS(=O)(=O)CCN12`, the AC50 under setting [2] was 0.891 µM [rising, full curve, poor fit]. On the same count and under the same terms, as for `O=C(C[n+]1ccccc1)Nc1ccc(Oc2ccccc2)cc1`, the figure is 35.5 µM [falling, partial curve, poor fit]; as for `Cc1cc2ccccc2c(=O)n1CC(=O)NCCC1=CCCCC1`, 1.78 µM [rising, partial curve]. As to `CCc1ccccc1NC(=S)/N=C(\N)Nc1nc(C)c2cc(C)ccc2n1`, the AC50 under setting [1] is 15.8 µM [rising, partial curve]. Turning to `CCCSc1nnc(NC(=O)Cc2ccc(OC)c(OC)c2)s1`, the half-maximal activity concentration (AC50) under setting [2] is 0.282 µM [rising, partial curve, poor fit]. With `COc1cnc(-c2ccccn2)nc1Oc1ccccc1Cl`, under setting [1], the AC50 was 8.91 µM [rising, partial curve]. Regarding `CCOC(=O)C1(Cc2ccccc2)CCN(Cc2cc(OC)c3c(c2)OCO3)CC1`, the AC50 is, setting by setting: under setting [2], 0.00316 µM [falling, full curve, poor fit]; under setting [1], 7.08 µM [falling, full curve, poor fit]. On to `COc1ccc(C(=O)Nc2ncc3c(n2)CC(c2ccco2)CC3=O)cc1` (centres undefined), for which the half-maximal activity concentration (AC50) under setting [1] is 0.2 µM [falling, full curve, poor fit]. In the case of `CC(C)c1ccc(NC(=O)c2cc(S(=O)(=O)NCCC3=CCCCC3)ccc2F)cc1`, the AC50 was 31.6 µM [falling, partial curve, poor fit] under setting [2] and 35.5 µM [falling, partial curve, poor fit] under setting [1]. With `COc1ccc(NC(=O)Cc2ccc(NC(=O)N3CCCCc4ccccc43)cc2)c(OC)c1`, the AC50 under setting [2] is 7.94 µM [falling, partial curve, poor fit] and the AC50 under setting [1] is 0.141 µM [falling, full curve, poor fit].

Regarding `CCCCCCn1c(N2CCN(c3ccccc3)CC2)nc2c1c(=O)n(C)c(=O)n2C`, the concentration at half-maximal activity (AC50) under setting [1] is 14.1 µM [rising, single point]. Still for that read-out and setting: in the case of `O=C(Cc1cccs1)N1CCN(c2nc(-c3ccc(Cl)cc3)cs2)CC1` it was 25.1 µM [rising, single point]. As for `COc1ccc(CNC(=O)CN(C)S(=O)(=O)c2ccc3[nH]c4c(c3c2)CCCC4)cc1`, the AC50 by setting is: under setting [2], 0.0631 µM [falling, full curve]; under setting [1], 0.0398 µM [falling, full curve]. With `CCOC(=O)C1CCC(CN(Cc2ccc(OC)cc2)S(=O)(=O)c2ccc(F)c(C(=O)Nc3cc(Cl)ccc3OC)c2)CC1` (centres undefined), the half-maximal activity concentration (AC50) under setting [1] was 0.355 µM [falling, partial curve, poor fit].

In the case of `CC[C@H](C)[C@@H]1O[C@]2(CC[C@@H]1C)C[C@H]1C[C@H](CC=C(C)[C@@H](O[C@@H]3C[C@H](OC)[C@H](O[C@@H]4C[C@H](OC)[C@H](O)[C@H](C)O4)[C@H](C)O3)[C@@H](C)C=CC=C3CO[C@@H]4[C@@H](O)C(C)=C[C@@H](C(=O)O1)[C@]34O)O2`, the half-maximal activity concentration (AC50) is, setting by setting: under setting [2], 0.355 µM [falling, partial curve]; under setting [1], 0.398 µM [falling, partial curve, poor fit]. Regarding `CCC(C)c1ccccc1NC(=O)COC(=O)c1ccc2[nH]c3c(c2c1)CCCC3` (centres undefined), under setting [1], the half-maximal activity concentration (AC50) is 14.1 µM [rising, single point]. Regarding `Cn1c(=O)c2c(-c3ccccc3)n(-c3ccccc3O)cc2n(C)c1=O`, the AC50 under setting [1] was 4.47 µM [falling, full curve, poor fit].

Consider `Cc1cn2c(=O)cc(COC(=O)c3ccc(NC(=O)c4ccc(C(C)(C)C)cc4)cc3)nc2s1`, for which, under setting [1], the AC50 was 0.00708 µM [rising, full curve, poor fit]. As for `COc1ccc(C2=Nc3ccccc3N(CC(=O)Nc3cccc(C(C)=O)c3)C(=O)C2)cc1`, the AC50 is 11.2 µM [falling, partial curve] under setting [2] and 11.2 µM [falling, partial curve] under setting [1].

As for `COc1ccc(/C(O)=C/c2nc3ccc(C(=O)NCCc4cccc(C)c4)cc3[nH]c2=O)cc1OC`, the half-maximal activity concentration (AC50) was 35.5 µM [falling, single point] under setting [2] and 35.5 µM [falling, single point] under setting [1].

As to `COc1ccc2c(c1)O[C@H](c1ccc3c(c1)OCO3)[C@@H](OC(=O)N[C@H](C)C1CCCCC1)C2=O`, the AC50 under setting [1] is 12.6 µM [rising, partial curve, poor fit].

`COc1ccc(OCCCn2c(C)nc3cc(C)c(C)cc32)cc1`: the AC50 under setting [2] was 11.2 µM [falling, partial curve] and the concentration at half-maximal activity (AC50) under setting [1] is 15.8 µM [falling, partial curve].
